Source: US5939387A, “Method of treating insulin resistance” (Eli Lilly and Company, priority 1996, dated 1999)

System: Zucker Diabetic Fatty (ZDF/Gmi-fa/fa) male rats
Assay: ZDF Male Rat Assay
Type: in vivo
Details: 6 to 14 weeks of age
Source text: A growth hormone releasing agent is continuously administered to Zucker diabetic male rats subcutaneously by use of an "Alzet" mini osmotic pump. The treatment was started at approximately 6 weeks of age and continued for approximately 6-8 weeks. The experiment was designed to allow the study of changes in the typical plasma glucose and insulin level profiles with the progression of the diabetic disease state.
Zucker Diabetic Fatty (ZDF/Gmi™-fa/fa) male rats were obtained from Genetic Models Inc. (Indianapolis, Ind.). The rats were maintained on Purina Formula 5008 rat chow (Purina Mills, Inc., St. Louis, Mo.) and housed in a light controlled room of alternating 12 hour cycles of light and dark. Rats were singly housed and given free access to food and water. At 5 weeks of age, an oral glucose tolerance test (OGTT: 16 hr fast, oral glucose concentration at 2.5 grams/kg body weight; Butler dextrose solution 50%, lot # 3342, Ft. Collins, Colo.; time points at 0, 30, 60, and 120 minutes) was given to each rat and their plasma assayed for glucose and insulin levels. At 6 weeks of age Alzet minipumps, containing a 1.5 inch polyethylene tube extensions (Model 2001, lot # 040401, 1.0 μl/hr, 7 days; Alza Corporation, Palo Alto, Calif.) were implanted subcutaneously. Animals were anesthetized with isoflurane at approximately 2-3% in oxygen. Each rat was shaved and a Povidone Iodine scrub was used at the site of implantation. A small incision was made above and just posterior to the shoulder. A small pocket was made and the pump placed in so the delivery port was away from the incision. The incision was then closed with wound clips and the rat observed and kept warm until awake. At the end of 7 days the pumps were removed from the rat and a new pump implanted subcutaneously as previously described. Pumps contained vehicle (PBS) or a growth hormone releasing agent (8 rats/group).
The GH releasing agent was prepared at concentrations of 625 and 62.5 μg/mL and loaded into Alzet pumps using sterile techniques. Body weight and food consumption were monitored once a week. Rats were bled from the tail for plasma glucose, insulin, and growth hormone levels weekly. One week prior to sacrificing the rats, an I.P. injection of tetracycline was given to each rat and then again the day before sacrificing (20 mg/mL; 0.5 mL/animal) to determine bone growth.
Assays: Plasma glucose concentrations were determined by the glucose hexokinase method (IL Test GLucose, lot # I1040502; Instrumentation Laboratory Company, Lexington, Mass.) with a model 2000 Monarch (Instrumentation Laboratory Company, Lexington, Mass.). Insulin was determined with a Coat-a-Count kit (Diagnostic Products Corporation, Los Angeles, Calif.) using a rat insulin standard (Lilly Research Laboratories, Indianapolis, Ind.). Glucagon was assayed with a double antibody procedure using guinea pig anti-glucagon (Catalog no. 1032; Linco Research, St. Louis, Mo.), goat anti-guinea pig (lot # T67-7GZ-237); Lilly Research Laboratories, Indianapolis, Ind.) and ^125 I-glucagon (DuPont New England Nuclear, Wilmington, Del.). Growth hormone was assayed using rat growth hormone standard (purchased from Parlow, Torrance Calif.; rGH-RP-2, lot AFP-3190B), anti rGH (purchased from Parlow, Torrance Calif.; rGH-s-r, lot AFP411S), ^125 I-rGH (Corning-Hazelton, Vienna, Va.) and protein A IGSL100 (Enzyme Center, Malden, Mass.).

“p-methyl hippuroyl Leu(27) (1-44)OH hGHRH (YADAIFTNSYRKVLGQLSARKLLQDILSRQQGESNQERGARARL) [GHRH Analog, functional analog of GHRH disclosed in EP 511 003, agent capable of stimulating growth hormone release]” gave a Heart weight (0.001 μg/min infusion) of 1.44 g, a Liver weight (0.001 μg/min infusion) of 22.21 g and a Spleen weight (0.001 μg/min infusion) of 0.8 g. It also gave a Thymus weight (0.001 μg/min infusion) of 0.86 g, a Heart weight (0.01 μg/min infusion) of 1.69 g and a Liver weight (0.01 μg/min infusion) of 24.79 g. It also gave a Spleen weight (0.01 μg/min infusion) of 1.18 g and a Thymus weight (0.01 μg/min infusion) of 0.99 g.
